Results are given in words; binding and its absence hold for the method and conditions named. Binding seen in cells or lysates may run through a third protein. These calls come from enrichment with a bait or labelling near it, and not all partners need be listed.
Molecular target: TRPV4-FLAG (wild type), expressed in HEK293T cells (human) (UniProt Q9HBA0)
Test: affinity purification with mass spectrometry; HEK293T transfected with FLAG-tagged TRPV4 or empty vector; lysate in IP Lysis Buffer (25 mM Tris-HCl pH 7.4, 150 mM NaCl, 1% NP-40, 1 mM EDTA, 5% glycerol); anti-FLAG affinity gel 2 h, elution with FLAG peptide, LC-MS-MS

Sequences of proteins named here, by UniProt entry; tags and fusion partners are left off.
UniProt Q9HBA0: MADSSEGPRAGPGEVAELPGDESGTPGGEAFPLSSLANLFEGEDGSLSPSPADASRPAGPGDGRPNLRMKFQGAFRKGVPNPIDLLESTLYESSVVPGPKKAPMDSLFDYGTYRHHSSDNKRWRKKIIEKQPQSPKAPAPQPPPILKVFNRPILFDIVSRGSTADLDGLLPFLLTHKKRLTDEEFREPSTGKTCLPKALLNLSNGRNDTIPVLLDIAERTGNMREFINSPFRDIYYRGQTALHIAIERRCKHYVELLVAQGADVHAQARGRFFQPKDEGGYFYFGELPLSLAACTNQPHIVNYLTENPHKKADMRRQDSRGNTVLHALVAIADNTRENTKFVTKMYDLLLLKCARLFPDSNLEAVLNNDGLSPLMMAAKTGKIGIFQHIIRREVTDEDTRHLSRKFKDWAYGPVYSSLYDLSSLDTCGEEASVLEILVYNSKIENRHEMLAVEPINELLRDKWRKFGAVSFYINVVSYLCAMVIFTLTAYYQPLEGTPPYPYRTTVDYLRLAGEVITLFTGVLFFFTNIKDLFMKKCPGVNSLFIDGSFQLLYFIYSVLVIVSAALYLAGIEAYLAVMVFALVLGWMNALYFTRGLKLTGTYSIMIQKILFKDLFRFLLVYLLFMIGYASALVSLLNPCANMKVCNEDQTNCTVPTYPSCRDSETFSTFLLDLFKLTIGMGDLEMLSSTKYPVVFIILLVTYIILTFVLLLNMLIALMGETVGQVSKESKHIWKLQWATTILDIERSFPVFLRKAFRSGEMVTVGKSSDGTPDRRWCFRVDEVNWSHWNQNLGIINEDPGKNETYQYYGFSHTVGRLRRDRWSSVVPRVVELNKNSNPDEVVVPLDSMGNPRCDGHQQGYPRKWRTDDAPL
UniProt P61586: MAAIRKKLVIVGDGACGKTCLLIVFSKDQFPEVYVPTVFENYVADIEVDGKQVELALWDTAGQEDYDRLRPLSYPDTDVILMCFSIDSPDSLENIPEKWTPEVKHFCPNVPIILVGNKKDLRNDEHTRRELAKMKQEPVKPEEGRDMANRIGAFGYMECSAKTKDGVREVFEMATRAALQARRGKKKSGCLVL

- binding: binds
Substance: endogenous RhoA of HEK293T / T-Rex-TRPV4 cells (from UniProt P61586 1-193)

Reference: paper PMC7933254
